{
  "source": "patent US20030148929A1",
  "about": "“Nucleic acid carriers and pharmaceutical compositions for gene therapy” (Hisamitsu Pharmaceutical Co., Inc., priority 1998, published 2003)",
  "tested_on": "HepG2 cells",
  "assay": "Introduction of FITC-labeled oligonucleotide into HepG2 cells using pDBA, flow cytometer",
  "format": "cell-based",
  "settings": "oligonucleotide/pDBA equal to or greater than 1/5 (w/w), 4 hours, FIG. 12",
  "experimental": "An oligonucleotide labeled with FITC (20 mer, Pharmacia Corporation) was used to assess the efficiency of introduction into cells for the. complexes of the oligonucleotide with various pDBAs.\nHepG2 cells were inoculated onto a 12-well petri dish at 1×10^5 cells/well and cultured for 24 hours. The FITC-labeled oligonucleotide was used, and pDBAs obtained in Synthetic Examples 3 and 5 were used as the nucleic acid carriers. Complexes were prepared from these three kinds (pDBAs and the FITC-labeled oligonucleotide) such that the ratios of oligonucleotide/pDBA were 1/1, 1/5, and 1/10 (w/w). The complex solutions were added to the HepG2 cells; and after culturing for 4 hours, the cells were washed with PBS(−) twice. After removal of PBS(−), the cells were separated from the dish using a cell dissociation solution (SIGMA-Aldrich Corporation) and the cell suspensions were subjected to measurement with a flow cytometer (FACS Calibur available from Becton Dickinson). The results are shown in FIG. 11 (oligonucleotide/pDBA=1/5(w/w)), where M1 represents the results from control experiment and M2 represents the results from the experiment using the FITC-labeled oligonucleotide).",
  "note": "Some entries share one result that the patent states for a list of compounds.",
  "data": [
    {"substance": "Poly(DL-2,4-diaminobutyric acid) Acetate [Synthetic Example 3]", "values": [
      {"measurement": "cells with incorporation of the FITC-labeled oligonucleotide among 10,000 cells", "result": "70-90%"}
    ]}
  ]
}
